Several values for one entry are separate records, joined by “and”; a condition that tells them apart may be missing. Equal values may be shown once. Among all 78,000 compounds or so, about 1,800 (2.3%) were called active. This list was built around the results that the source calls inconclusive (neither active nor inactive); the mix of calls is not that of the screen. Cut-off read from the data, not from the text of the source: active = inhibition above about 30%; inconclusive = mostly about 10% to 28%; inactive = weaker than that.
What follows are compounds tested against Interleukin-1 receptor-like 1 (Homo sapiens) (UniProt Q01638) (assay: blocks human ST2 binding to IL-33, primary screen, biochemical, AlphaLISA (AID 1259354)). Conditions: AlphaLISA ST2-Fc/biotin-IL-33 interaction, 1 h; at 17 µM, stronger effect = higher value.

Amino acid sequences for entries named in this document (tags omitted). A change or cut given only in a name is not applied to a line headed by its entry.
UniProt Q01638: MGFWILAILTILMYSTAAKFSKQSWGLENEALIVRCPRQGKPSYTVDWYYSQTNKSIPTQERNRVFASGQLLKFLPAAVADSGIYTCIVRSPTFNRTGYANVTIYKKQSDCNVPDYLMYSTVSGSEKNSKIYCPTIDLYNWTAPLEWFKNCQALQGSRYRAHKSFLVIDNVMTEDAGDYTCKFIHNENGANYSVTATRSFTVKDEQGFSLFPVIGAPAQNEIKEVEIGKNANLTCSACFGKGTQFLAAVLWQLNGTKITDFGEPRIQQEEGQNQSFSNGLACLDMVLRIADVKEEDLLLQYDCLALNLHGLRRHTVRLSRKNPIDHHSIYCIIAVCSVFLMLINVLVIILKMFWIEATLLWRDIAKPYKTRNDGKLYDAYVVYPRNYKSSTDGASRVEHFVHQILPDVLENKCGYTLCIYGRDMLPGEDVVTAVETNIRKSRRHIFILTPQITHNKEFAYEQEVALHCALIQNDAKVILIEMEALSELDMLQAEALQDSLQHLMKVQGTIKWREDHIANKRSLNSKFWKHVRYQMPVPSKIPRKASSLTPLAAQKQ

Row | SMILES | inhibition
1 | O=C(Cn1cnc2c(cnn2-c2ccccc2)c1=O)N1CCCC1 | inconclusive: 13%
2 | CCN1CCN(C(=O)CSc2c3c(nc4ccc(Cl)cc24)CCCC3)CC1 | inactive
3 | CCCc1c(-c2ccccc2)ncn1CCc1ccncc1 | inconclusive: 12%
4 | COc1ccc(N=Cc2cccc([N+](=O)[O-])c2O)cc1 | inconclusive: 13%
5 | COc1ccccc1N1CCN([C@H]2[C@@H]3OC[C@@H](O3)[C@@H](NCc3ccc(-c4ccccc4)cc3)[C@@H]2O)CC1 | inactive
6 | O=[N+]([O-])c1ccc(CSc2nnnn2-c2ccccc2F)cc1 | inconclusive: 22%
7 | Cc1c(C)n(CC(O)CN2CCC(C)CC2)c2ccccc12 (stereo not drawn) | inconclusive: 16%
8 | N=c1oc2ccc([N+](=O)[O-])cc2cc1C(=O)Nc1ccccc1Cl | inactive
9 | CC(C)n1c(Sc2nncn2C)nc2c1c(=O)n(C)c(=O)n2C | inconclusive: 18%
10 | C=CCOC(=O)Oc1ccc2c(=O)c(-c3ccccc3OC)coc2c1 | inconclusive: 17%
11 | CCOc1ccc(-n2c(SC(C)CC)nc3c(c2=O)SCC3)cc1 (stereo not drawn) | inconclusive: 10%
12 | Cc1cc2c(cc1[N+](=O)[O-])-c1ncccc1C2=Nc1ccccc1 | active: 32%
13 | C=CCOC(=O)C1=C(C)N=C2SCCC(=O)N2C1c1ccc(OCCC(C)C)c(OC)c1 (stereo not drawn) | inconclusive: 12%
14 | CCCCCCCCCCCCCCCCCC(=O)OC(CC(=O)O)C[N+](C)(C)C (stereo not drawn) | inactive
15 | Cc1cccc(-c2noc([C@@H]3Cc4nc[nH]c4CN3C(=O)Nc3cccc(C#N)c3)n2)c1 | inconclusive: 21%
16 | Cc1ccnc(Nc2nc(-c3ccc(O)c(O)c3)cs2)c1 | active: 44%
17 | CC1(C)CC(=O)C2=C(C1)Nc1nc(SCc3ccccc3)nn1C2c1ccccc1 (stereo not drawn) | inconclusive: 14%
18 | CCOc1ccc(C2C(C(=O)Nc3ccccc3OC)=C(C)Nc3nnnn32)cc1OC (stereo not drawn) | inactive
19 | NC1=NC(=O)C(CC(=O)Nc2ccccc2Br)S1 (stereo not drawn) | inconclusive: 16%
20 | COc1ccc(C2(CC(=O)N3CCC(c4ccccc4)CC3)CC(=O)N(C3CC3)C2=O)cc1 (stereo not drawn) | inconclusive: 16%
21 | CCN(CC)CCCn1c(-c2ccccc2)cn2c3ccccc3nc12 | inconclusive: 15%
22 | COc1ccc(CN(C)Cc2nc(C(c3ccccc3)c3ccccc3)no2)c2cccnc12 | inactive
23 | Cc1ccsc1C(=O)NC1CC(=O)N(CCCc2ccccc2)C1 (stereo not drawn) | inactive
24 | Cc1nn2cc(CNC(=O)COc3c(C)ccc(C)c3C)nc2s1 | inconclusive: 10%

3 entries out of the list, sorted by length of the SMILES, low to high.
Row | SMILES | inhibition
7 | Cc1c(C)n(CC(O)CN2CCC(C)CC2)c2ccccc12 (stereo not drawn) | inconclusive: 16%
23 | Cc1ccsc1C(=O)NC1CC(=O)N(CCCc2ccccc2)C1 (stereo not drawn) | inactive
17 | CC1(C)CC(=O)C2=C(C1)Nc1nc(SCc3ccccc3)nn1C2c1ccccc1 (stereo not drawn) | inconclusive: 14%

More entries

Row | SMILES | inhibition
25 | CCCNC(=O)NC(=O)c1c(Cl)nc(C)c(Cl)c1C | inactive
26 | COC(=O)c1ccc(N2C(=O)[C@@H]3C4c5ccccc5C(c5ccccc54)[C@@H]3C2=O)cc1 | inactive
27 | c1csc(-c2nc3cnccn3c2Nc2ccc3c(c2)OCCO3)c1 | inconclusive: 16%
28 | Cc1ccc(Nc2nc(-c3ccc(O)cc3O)cs2)nc1 | inconclusive: 25%
29 | Cc1ccc(C(=O)CN2C(=C(O)c3ccccc3)C(=O)c3ccccc3S2(=O)=O)c(C)c1 | inconclusive: 19%
30 | COc1ccc(-c2ccc3c(c2)C(=O)N2CCN(C(=O)CC(C)(C)C)C[C@@H]2C(=O)N3)cc1 | inconclusive: 14%
31 | O=C(C1CC1)N1CCc2cc(Br)cc(S(=O)(=O)Nc3ccc(F)c(F)c3)c21 | inactive
32 | COc1ccc(CC(=O)Nc2ccc(=O)n3c2[C@@H]2C[C@@H](CN(S(=O)(=O)c4ccccc4)C2)C3)cc1 | inconclusive: 13%
33 | N#Cc1ccc(Br)cc1/C=C/C(=O)O | active: 80%
34 | O=C(c1[nH]cnc1-c1ccccc1)N1C[C@H](O)[C@@H](N2CCOCC2)C1 | inconclusive: 17%
35 | COc1cc(Br)c(CN2CCN(c3ccccc3F)CC2)cc1OC | inconclusive: 14%
36 | CCOC(=O)c1c(NC(=O)C2CC2c2ccccc2)sc2c1CCCC2 (stereo not drawn) | inactive
37 | O=C(Nc1ccc(Oc2ccccc2)nc1)C1CCN(C(=O)c2ccncc2)CC1 | inconclusive: 12%
38 | COc1cc(N/C=C(\C#N)c2nc(-c3cc4ccccc4oc3=O)cs2)c(OC)cc1Cl | inactive
39 | COc1ccc(OC)c(NC(=O)CNC(=O)Cn2ccc3ccccc3c2=O)c1 | inconclusive: 26%
40 | CC1CCN([C@@H]2[C@H](O)[C@H](CO)O[C@@H]2CN(Cc2ccc(F)cc2)Cc2ccc(F)cc2)CC1 | inconclusive: 12%
41 | Cc1ccc(CN2CCC(CN(C)Cc3ccc4nonc4c3)CC2)o1 | inconclusive: 15%
42 | O=C(Nc1ccccc1F)C(NS(=O)(=O)c1cccs1)c1ccccc1 (stereo not drawn) | inconclusive: 11%
43 | N#Cc1cc2c(nc1SCC(=O)c1ccccc1)CCC2 | inconclusive: 19%
44 | CC(=O)N1CC(c2cnc(-c3ccccc3)c(C)c2)C=C(C)C1c1ccccc1 (stereo not drawn) | inconclusive: 10%
45 | CC(C)c1ccc(NC(=O)O[C@@H]2CO[C@H]3[C@@H]2OC[C@@H]3NC(=S)Nc2cccc3ccccc23)cc1 | inconclusive: 14%
46 | CCOc1cc(CN2CCSCC2)ccc1OC | inactive
47 | CC(=O)Nc1ccc(CN2CCN(c3ccc(Cl)cc3)CC2)cc1 | inactive
48 | Cc1ccc(C(=O)N2CCC3(CCCN(Cc4ccc(F)cc4)C3)C2)cn1 (stereo not drawn) | inconclusive: 13%

Row | SMILES | inhibition
49 | Nc1cc(C(=O)N2CCN(C3CCCCC3)C(=O)C2)ccn1 | inactive
50 | CCOc1ccc(C(=O)NCc2nc3cccnc3n2Cc2ccc(OC)cc2)cc1 | inconclusive: 13%
51 | Cc1nc(N(C)C)nc(N2CCC(N(C)C)C2)c1C (stereo not drawn) | inconclusive: 10%
52 | Cc1cnc(SCCN2CCOCC2)nc1C1CCCN(C(=O)c2cc(=O)c3ccccc3o2)C1 (stereo not drawn) | inconclusive: 12%
53 | COC(=O)c1ccccc1NS(=O)(=O)c1cc(Br)cc2c1N(C(=O)C1CC1)CC2 | inactive
54 | c1ccc(Cc2nc(Cn3ccnc3-c3cccnc3)cs2)cc1 | inconclusive: 12%
55 | CCc1cccc(NS(=O)(=O)c2cccc3cccnc23)c1 | inactive
56 | Cc1csc(-c2cc3ccc(OCc4c(F)cccc4Cl)cc3oc2=O)n1 | inconclusive: 16%
57 | CCC1C=CCN1C(=O)c1cnc(N2CCOCC2)nc1 (stereo not drawn) | inconclusive: 13%
58 | COc1ccc(N2CN=c3s/c(=C\c4cccnc4)c(=O)n3C2)cc1 | inconclusive: 12%
59 | COC(=O)c1ccc(NC(=O)c2ccc(NC(=O)C3CCCO3)cc2)cc1 (stereo not drawn) | inconclusive: 13%
60 | COc1ccc(CCNC(=O)c2sc3cc([N+](=O)[O-])ccc3c2Cl)cc1 | inconclusive: 13%
61 | C[n+]1ccc(NC(=O)C(O)(c2ccccc2)c2ccccc2)cc1 | inconclusive: 11%
62 | Cc1ccc(C)c(N2CCN(S(=O)(=O)c3ccc(C(=O)N(C)C)s3)CC2)c1 | inconclusive: 12%
63 | Oc1ccc(-c2cccc(-n3cnnc3)c2)cc1 | inconclusive: 10%
64 | CC(C)Oc1ccc(C(O)=C2C(=O)C(=O)N(c3ccccn3)C2c2cccs2)cc1 (stereo not drawn) | inactive
65 | COc1cccc2c1OCCCN(Cc1ccc(CO)o1)C2 | inactive
66 | CCCc1nc(N2CCOC(CCOC)C2)c2cnn(C)c2n1 (stereo not drawn) | inconclusive: 17%
67 | C=CCn1c(C(C)NC(C)=O)nc2ccccc21 (stereo not drawn) | inconclusive: 20%
68 | O=C(c1ccc(Br)o1)N(c1ccc(Br)cc1)C1C=CS(=O)(=O)C1 (stereo not drawn) | inconclusive: 10%
69 | O=S(=O)(Cc1ccccc1)N1CCCC1c1ccccn1 (stereo not drawn) | inconclusive: 15%
70 | CC(C)c1cc(C(=O)Nc2ccc(Br)cc2)no1 | inactive
71 | COc1ccc(/C=C2\Sc3ccccc3N(CC(=O)NC3CCCCC3C)C2=O)cc1 (stereo not drawn) | inconclusive: 26%
72 | CCC(C)NS(=O)(=O)c1ccc(Cl)s1 (stereo not drawn) | inactive

Row | SMILES | inhibition
73 | CC1CC(C)CN(CCCNc2ncnc3nc[nH]c23)C1 (stereo not drawn) | inconclusive: 16%
74 | Cc1ccc(NC(=O)Cn2c(C)nc3ccccc32)cc1 | inactive
75 | O=C(c1cc(-c2ccc(F)cc2)on1)N1CCN(c2ccc(F)cc2)CC1 | inconclusive: 10%
76 | Cc1ccccc1-c1cnc(-c2ccncc2)nc1C1CCCN(C(=O)c2ccc3ccccc3c2)C1 (stereo not drawn) | inactive
77 | c1ccc(CNc2cc(-c3n[nH]c4ccccc34)c3cc[nH]c3n2)nc1 | inconclusive: 23%
78 | CC1(C)CC(=O)C2=C(C1)Nc1nc(SCc3ccccc3F)[nH]c(=O)c1C2c1cccnc1 (stereo not drawn) | inactive
79 | COc1ccccc1N1C(=O)S/C(=C\c2ccccc2)C1=O | inconclusive: 28%
80 | CN(Cc1ccco1)C(=O)c1nn(C)c2c1CC(NCc1nc(-c3ccccc3)cs1)CC2 (stereo not drawn) | inconclusive: 10%
81 | O=[N+]([O-])c1cccc(-n2nncc2-c2ccccc2)c1 | inactive
82 | Cc1n[nH]c(C)c1S(=O)(=O)N1CCC(C(=O)N2CCCC(C)C2)CC1 (stereo not drawn) | inconclusive: 13%
83 | Cc1ccc(-n2nc3c4nonc4ccc3[n+]2[O-])cc1 | inactive
84 | CCN(CC)c1ccc(C2C(C(=O)Nc3ccc(F)cc3)=C(C)NC3=C2C(=O)CC(C)(C)C3)cc1 (stereo not drawn) | inactive
85 | O=c1oc(-c2ccco2)nc2ccc(Br)cc12 | inconclusive: 26%
86 | Cc1nn(C)c2c1C(c1cc(F)ccc1-n1cccn1)CC(=O)N2 (stereo not drawn) | inconclusive: 10%
87 | COc1cc(N)c(Cc2nccc3cc(OC)c(OC)cc23)cc1OC | inconclusive: 14%
88 | CC(CNC(=O)CCc1c[nH]c2ccccc12)n1cncn1 (stereo not drawn) | inconclusive: 11%
89 | O=C(NCc1ccco1)c1cc(-c2ccc(Br)s2)nc2ccccc12 | inconclusive: 21% and inconclusive: 12%
90 | CCCC(=O)N1CCC(N2CCC(Cc3cccc(C(=O)O)c3)C2)CC1 (stereo not drawn) | inactive
91 | Cc1ccc(C(O)=Cc2nc3cc(Cl)ccc3oc2=O)cc1 | inconclusive: 18%
92 | CC(=O)NC1CCN(c2cc(C)c3cc4c(cc3n2)CCC4)CC1 | inconclusive: 18%
93 | CSc1ccc(CN2CCN(S(=O)(=O)c3ccc([N+](=O)[O-])cc3)CC2)cc1 | inconclusive: 22%

Fetched by compound from above:
Row | SMILES | inhibition
89 | O=C(NCc1ccco1)c1cc(-c2ccc(Br)s2)nc2ccccc12 | inconclusive: 21% and inconclusive: 12%
76 | Cc1ccccc1-c1cnc(-c2ccncc2)nc1C1CCCN(C(=O)c2ccc3ccccc3c2)C1 (stereo not drawn) | inactive
